The values below come from US20020177193A1.

Protein sequences, listed by entry. Tags and fused reporters are not part of them. Lines headed by an entry give the natural chain unless they say otherwise; changes in a name come on top. Residues count along the entry.
UniProt P16234, residues 24-524: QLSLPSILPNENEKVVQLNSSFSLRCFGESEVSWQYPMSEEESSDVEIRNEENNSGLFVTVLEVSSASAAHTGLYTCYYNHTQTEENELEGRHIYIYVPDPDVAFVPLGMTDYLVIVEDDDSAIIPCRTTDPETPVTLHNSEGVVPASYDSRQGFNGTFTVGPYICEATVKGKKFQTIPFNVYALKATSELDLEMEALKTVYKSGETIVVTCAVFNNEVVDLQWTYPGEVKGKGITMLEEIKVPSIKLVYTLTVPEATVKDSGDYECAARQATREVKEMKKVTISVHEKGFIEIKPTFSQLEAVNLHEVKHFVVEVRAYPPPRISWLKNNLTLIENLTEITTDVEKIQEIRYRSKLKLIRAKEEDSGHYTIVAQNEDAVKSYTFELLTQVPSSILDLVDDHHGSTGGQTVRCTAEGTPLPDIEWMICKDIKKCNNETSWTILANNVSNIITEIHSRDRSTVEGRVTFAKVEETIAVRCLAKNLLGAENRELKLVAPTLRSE
UniProt Q9NRA1: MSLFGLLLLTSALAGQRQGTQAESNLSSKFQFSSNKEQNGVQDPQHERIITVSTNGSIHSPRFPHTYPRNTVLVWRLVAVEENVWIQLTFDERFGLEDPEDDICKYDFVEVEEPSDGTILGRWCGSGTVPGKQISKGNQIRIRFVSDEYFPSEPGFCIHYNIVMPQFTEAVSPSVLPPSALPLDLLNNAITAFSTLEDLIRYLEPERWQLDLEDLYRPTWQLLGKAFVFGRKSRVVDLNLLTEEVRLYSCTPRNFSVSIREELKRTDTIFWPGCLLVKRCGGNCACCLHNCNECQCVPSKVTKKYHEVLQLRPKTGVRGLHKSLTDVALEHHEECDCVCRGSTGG

Results are given in words; binding and its absence hold for the method and conditions named. Some results given as binding are weak or reduced against the parent protein; the word gives no strength.

The assay deals with PDGF receptor α (R&D Systems) (UniProt P16234). Put plainly: 10 ng/mL 125I-zvegf3 on cultured cells, with unlabelled zvegf3, VEGF, PDGF-BB, PDGF receptor α or PDGF receptor β-Fc as competitors; gamma counting.

Consider “recombinant zvegf3 growth factor domain (residues 235-345 of SEQ ID NO: 2), produced in BHK 570 cells (from UniProt Q9NRA1 235-345) (ligand)”, for which the binding result is given as “binds”.
